Article PMC6464043
No constants are given. Whether binding was seen depends on the method and setting. In cells and extracts the contact can be indirect. A yes stands for co-enrichment or nearness to the bait. Other partners may have been found.

Amino acid sequences for entries named in this document (tags omitted).
UniProt P49739: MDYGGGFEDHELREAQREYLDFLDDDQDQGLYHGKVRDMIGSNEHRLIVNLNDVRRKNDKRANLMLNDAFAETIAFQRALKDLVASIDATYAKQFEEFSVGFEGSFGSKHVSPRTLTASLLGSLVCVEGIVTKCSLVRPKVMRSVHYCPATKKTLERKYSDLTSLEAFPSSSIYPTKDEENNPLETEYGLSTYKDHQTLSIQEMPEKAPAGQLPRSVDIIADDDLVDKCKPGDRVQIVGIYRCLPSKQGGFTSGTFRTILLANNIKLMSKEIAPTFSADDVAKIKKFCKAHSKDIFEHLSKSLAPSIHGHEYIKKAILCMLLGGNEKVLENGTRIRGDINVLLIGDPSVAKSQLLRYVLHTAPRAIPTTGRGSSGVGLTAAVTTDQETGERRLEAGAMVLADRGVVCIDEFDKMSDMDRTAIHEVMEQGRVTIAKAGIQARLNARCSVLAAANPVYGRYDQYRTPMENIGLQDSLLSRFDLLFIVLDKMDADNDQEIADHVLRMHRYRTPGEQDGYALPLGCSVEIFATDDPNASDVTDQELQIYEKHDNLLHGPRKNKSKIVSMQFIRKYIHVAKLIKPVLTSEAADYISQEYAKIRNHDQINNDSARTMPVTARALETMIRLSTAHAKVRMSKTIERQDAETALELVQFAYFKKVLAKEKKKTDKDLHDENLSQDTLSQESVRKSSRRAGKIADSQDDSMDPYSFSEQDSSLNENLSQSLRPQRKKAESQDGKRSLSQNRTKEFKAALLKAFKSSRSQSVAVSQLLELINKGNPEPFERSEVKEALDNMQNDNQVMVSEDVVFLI

Target: Mcm3 (X. laevis (endogenous in egg extract)) (UniProt P49739)
Assay: affinity purification with mass spectrometry; Mcm3 (or control sheep IgG) immunoprecipitation from chromatin isolated 60 min after cyclin A1Δ addition (mitosis) from X. laevis egg extract with caffeine and p97 inhibitor NMS873; chromatin proteins released with benzonase, sonication, 150 mM potassium acetate

| binding | Binder |
| --- | --- |
| binds | TRAIP ubiquitin ligase (protein, UniProt Q6NRV0 1-464) MPIRAYCTICSDFFDNARDVAAITCGHTFHQECLLQWFHSAPHRTCPQCRIQVSSRQIINKLFFDIGGEEETVLDAESLKNEVDRIKASLLVKEKEKRECQGLVDSLREMLDVRNVTIQSQQKELGDMEMLCSTLKKQIKFLDKQQSETKAAKDEARKLRNKLKTMESIEVLLQSQRSEVEEMIRDMGSGQAAVEQLAIYCVSLKKEYENLKEVRKSSAEMTEKLRKELFSSNHKAQKAELELTKVREELSASQKELHSADKEIMSLKKKVEFLQKTLTTPTASNEAISRLIFESPAPIGLERPKLRPPMMGNDINLDVTFDIDTPEHNTQKSVVAPFKKMKFDNKEHPLSSPTKNPLQESKGLMSWAGGRTGADEDDDLTLPSFIKNSLLHKKPVGSLLGLRQNTGAVRTGFDGLGGRTKFIQPSNLTEIRPLHQKMKRKKVSRPTACTSSLANQPRLEDFLK |
| binds | Ctf4/And-1 (protein, UniProt O13046 1-1127) MPAIKKNMRYGHPEGHTDVCFDDSGNFLVTCGSDGDIRIWESLDDDDPKSISIGEKAYSFALKNGKVVTAASNNAIQLHTFPDGEPDGILTRFTTNANHVVFNTDGTRIAAGSGDFLVKVLQVEDSTQQKTLRGHSAPVLSVSFDPKDIYLASASCDGSVRIWKISDQTCEAVLPLLEKCNDVFNAKSICRLAWQPKSGKFVAIPVGKAVHLYDRDSLKNICTLSDDFITQPVNIVAWSPCGQYLVAGSVDGCIVAWNIATKACLERIKHEKGYTICALAWHPHLPQIAYTDNEGNLGLLEDVCQGDVKQPSAKVSSAETKDYDELFDGDDDEDFLNGDMIGHEGAVNDEDDDDNFTALTGRPRNRGAIFDDDISSDVPSLKLVGNENPVVEDDQASSVQNFTSVASVKLSYNGPMPTPQQKPFQSGSTPVHLMHRFMVWNSVGVIRCYNDEQDNAIDVEFHDTSIHHAIHLTNSLNHTLADVSQEAVLLACETTEELASKLQCLHFSSWDTSKEWMVDMPKGENIQAICLGQGWVACATSALLIRIFSVGGVQKELISLFGPVVCMASHGEQLIVVYHRGMGFDGDQCLGVQLLELGKKKKQVLHGDPLPLSRKSYLSWLGFTAEGSPCYVDSEGIVRLLNRSLGDTWVPICNTREHCKGKSDHYWVVGIHENPQQVRCIPCKGSRFPPTLPRPAVAVLPFNLPYCQITTEKGQMEEQYWRSQIFSNHSDYLSKHGYECDENFKAEAQKMQQELLMKMFALSCKLEREFRCMELAEFMTQNVMNLAIKYASRSKRLILAQRLSEMALEKAAEQASAEQNEEEDEEEEDFRSRLTAGYSRTATEWGDSRAKPVKQDQYEENNEEEMEEEEKEQEEALESNTPTANPFNKSVKTPDVSESKLGAILSSNQGRVNPFKVSASQKSPAFASNSSRSTSILDNMGKFPRKPSASGSPSTSKSDSVIIKPLAPKAKSKQGQATLFHSVQAKPIAKKTTEEKKAVPTPPKAAADIAENKKPKTGFQLWLDENRPSILSENAGLDESEIIKEGMSRFRMLTSEERMLWTEKAKGDYPGEDGADAKKRKRPEQENMASNGCPQENTDSGIAAAKKHKPLGQSANNKLSAFAFKKE |
